Results published in US6613734B2 (The Scripps Research Institute, priority 1988, dated 2003).
Where a sequence shows no end group, the ends are not given.

Assay: general procedure: Boc solid-phase peptide synthesis; lysine PAM-resin
Details: whole synthesis, scale of the general procedure 100 g of lysine PAM-resin

Sequence: KLLLLKLLLLKLLLLKLLLLK
- final HPLC purity: ≧95%
